Here are results for three molecules from patent US20140193421A1 (EISAI R AND D MANAGEMENT, published 2014).

Sequences and labels used below:
B1: mouse anti-human XCR1 antibody (2H6) (antibody, IgG2b, V domains shown)
VH: QAYLQQSGAELVRPGASVKMSCKASGYTFSSHNMHWIKQTLRQGLEWIGAIYPGKGNTSYNQKFKGKATLTVDKSSSTAYMQLSSLTSEDSAVYFCARWGSVVGDWYFDVWGTGTTVTVSS
VL: DVVVTQTPLSLPVSLGDQASISCRSSQSLVHSNGNTYLHWYLQKPGQSPKLLIYRVSNRFSGVPDRFSGSGLGRDFTLKISRVEAEDLGVYFCSQSTFVPWTFGGGTKLEIK
B2: mouse anti-human XCR1 antibody (5G7) (antibody, IgG2b, V domains shown)
VH: QAYLQQSGAELVRPGASVKMSCKASGYTFTSHNLHWVKQTPRQGLQWIGAIYPGNGNTAYNQKFKGKATLTVDKSSSTAYMQLSSLTSDDSAVYFCARWGSVVGDWYFDVWGTGTTVTVSS
VL: DVVMTQTPLSLPVTLGNQASIFCRSSLGLVHRNGNTYLHWYLQKPGQSPKLLIYKVSHRFSGVPDRFSGSGSGTDFTLKISRVEAEDLGVYFCSQSTHVPWTFGGGTKLEIK
notes: also called 5G7 Mab; parent antibody 5G7
B3: mouse anti-human XCR1 antibody (11H2) (antibody, IgG2a, V domains shown)
VH: EVQLQQSGPVLVKPGASVKMSCKASGYTFTDYYVNWVKQSHGASLEWIGVSNPKNGDKSYNQKFKGKATLTVDKSSSTAYMELNSLTSEDSAVYYCARGLYYAGTYGYFDVWGTGTTVTVSS
VL: DIQMTQATSSLSASLGDRVTISCRASQDISNYLNWYQQKPDGTVKLLIYYTSRLHSGVPSRFRGSGSGTDFSLTISNLEQEDIATYFCQQGKTLPRTLGGGTKLEIK

Results are given in words; binding and its absence hold for the method and conditions named.

For this experiment, the target named is chimera receptor mmHm. As to the kind of experiment: FACS on cells expressing the chimera.
As to B1, the binding entry was “no binding”.

Turning to B2, the binding result was “no binding”.

Regarding B3, the binding result is listed as “no binding”.
